{"source": "patent US10995177B2", "about": "(priority 2018, dated 2021)", "key": {"[1]": {"system": "MDR clinical isolates of K. pneumoniae, E. coli, A. baumannii, P. aeruginosa, E. faecium and MRSA", "assay": "MIC by broth microdilution against different types and strains of MDR clinically isolated bacteria", "format": "cell-based", "details": "Gram-negative and Gram-positive MDR clinical isolates"}, "[2]": {"system": "K. pneumoniae 9170", "assay": "In vitro time-killing assay", "format": "cell-based, Klebsiella pneumoniae"}}, "note": "For at least one compound, name, drawing or mass did not settle the structure.", "data": [{"smiles": "C[C@@H](O)[C@H]1C(=O)N2C(C(=O)O)=C(SCCN=CN)C[C@H]12", "note": "[imipenem]", "values": [{"measurement": "spectrum of antibacterial activity", "setting": "[1]", "value": "only demonstrated efficacy against the Gram-negative strains"}, {"measurement": "dose dependence of bactericidal effect", "setting": "[2]; 1×, 2× and 4×MIC", "value": "independent of dose"}, {"measurement": "time to kill 99.9% bacteria (3 log reduction in bacteria counts)", "setting": "[2]; 2×MIC concentration", "value": 180, "unit": "min"}, {"measurement": "killing outcome after 2.0 hours of exposure", "setting": "[2]; 4×MIC concentration, 2.0 hours", "value": "viable bacteria were still observed"}, {"measurement": "time to kill 99.9% of MDR K. pneumoniae (3 log reduction)", "setting": "[2]; base dosage, before the 2× and 4× increases", "value": "more than 180 minutes"}]}]}
